Experimental data reported in publication PMC4099368.
Positions count from the first letter of the chain named. No constants are given. Whether binding was seen depends on the method and setting. Binding seen in cells or lysates may run through a third protein. Some binding calls cover weakened binding; strength is not graded here. Sequences can lack the tags named with a protein.

Chains of the proteins cited; added tags and fusions are not shown. Residues count along the entry.
UniProt P43694, residues 200-254: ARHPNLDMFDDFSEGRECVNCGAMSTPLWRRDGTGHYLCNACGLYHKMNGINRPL

Key:
[1] = target: T1, GST-ZFPM2/FOG2 p.M703L (human) (UniProt Q8WW38); assay: pull-down; GST-ZFPM2/FOG2 (wild type or mutant) bound to 200 µl glutathione resin (Pierce GST Protein Interaction Pull-Down kit), incubated with GATA4 fragment at 4°C; washed with 25 mM Tris-HCl pH 7.2, 150 mM NaCl; eluate on SDS-PAGE, Coomassie staining
T1 sequence: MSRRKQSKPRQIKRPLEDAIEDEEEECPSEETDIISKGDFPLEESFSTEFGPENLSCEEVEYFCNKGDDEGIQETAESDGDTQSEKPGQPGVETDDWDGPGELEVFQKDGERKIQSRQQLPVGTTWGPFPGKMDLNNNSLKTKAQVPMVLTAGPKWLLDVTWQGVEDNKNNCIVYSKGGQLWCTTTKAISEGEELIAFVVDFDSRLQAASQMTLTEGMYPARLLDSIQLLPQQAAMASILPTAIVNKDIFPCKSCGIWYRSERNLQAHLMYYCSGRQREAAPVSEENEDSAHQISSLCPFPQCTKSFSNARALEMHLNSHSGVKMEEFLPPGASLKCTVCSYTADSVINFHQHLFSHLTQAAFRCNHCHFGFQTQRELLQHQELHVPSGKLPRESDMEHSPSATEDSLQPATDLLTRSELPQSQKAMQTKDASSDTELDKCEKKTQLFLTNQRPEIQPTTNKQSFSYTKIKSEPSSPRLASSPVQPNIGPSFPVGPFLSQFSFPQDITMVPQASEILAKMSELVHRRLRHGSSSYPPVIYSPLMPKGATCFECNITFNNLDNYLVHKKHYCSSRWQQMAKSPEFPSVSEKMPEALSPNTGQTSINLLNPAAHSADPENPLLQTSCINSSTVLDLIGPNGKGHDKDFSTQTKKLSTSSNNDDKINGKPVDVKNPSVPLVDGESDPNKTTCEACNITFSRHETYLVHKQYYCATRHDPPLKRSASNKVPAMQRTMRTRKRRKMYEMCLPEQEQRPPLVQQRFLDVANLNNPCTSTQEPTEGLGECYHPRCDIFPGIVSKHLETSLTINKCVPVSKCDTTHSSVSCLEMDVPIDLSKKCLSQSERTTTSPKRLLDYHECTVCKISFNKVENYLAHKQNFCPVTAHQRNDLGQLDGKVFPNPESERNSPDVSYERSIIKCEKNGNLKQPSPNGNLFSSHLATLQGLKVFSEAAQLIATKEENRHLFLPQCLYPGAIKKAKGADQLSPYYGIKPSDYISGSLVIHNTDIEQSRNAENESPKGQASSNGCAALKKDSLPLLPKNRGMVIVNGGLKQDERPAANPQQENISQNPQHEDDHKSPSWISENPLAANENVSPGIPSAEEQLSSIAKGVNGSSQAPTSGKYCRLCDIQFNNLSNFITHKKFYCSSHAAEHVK

[2] = target: T2, GST-ZFPM2/FOG2 p.I227V (human) (UniProt Q8WW38); assay: as above
T2 sequence: T1 sequence with I227V, L703M

How did the binding [1] turn out when “N-terminal zinc-finger sequence of GATA4 (residues 200-254) (from UniProt P43694 200-254) (domain or fragment)” was run?
The binding was “binds”.

What about the binding [2] of the same substance?
The binding was “binds”.
